In US20030049831A1:
No constants are given. Whether binding was seen depends on the method and setting. Some entries that bind do so weakly or less than the wild type.

The chains behind the UniProt entries cited, without tags or fusion partners. Where a name states a change or a piece, a line headed by the entry shows the natural chain unless it says otherwise. Residues count along the entry.
UniProt P08603, residues 19-1231: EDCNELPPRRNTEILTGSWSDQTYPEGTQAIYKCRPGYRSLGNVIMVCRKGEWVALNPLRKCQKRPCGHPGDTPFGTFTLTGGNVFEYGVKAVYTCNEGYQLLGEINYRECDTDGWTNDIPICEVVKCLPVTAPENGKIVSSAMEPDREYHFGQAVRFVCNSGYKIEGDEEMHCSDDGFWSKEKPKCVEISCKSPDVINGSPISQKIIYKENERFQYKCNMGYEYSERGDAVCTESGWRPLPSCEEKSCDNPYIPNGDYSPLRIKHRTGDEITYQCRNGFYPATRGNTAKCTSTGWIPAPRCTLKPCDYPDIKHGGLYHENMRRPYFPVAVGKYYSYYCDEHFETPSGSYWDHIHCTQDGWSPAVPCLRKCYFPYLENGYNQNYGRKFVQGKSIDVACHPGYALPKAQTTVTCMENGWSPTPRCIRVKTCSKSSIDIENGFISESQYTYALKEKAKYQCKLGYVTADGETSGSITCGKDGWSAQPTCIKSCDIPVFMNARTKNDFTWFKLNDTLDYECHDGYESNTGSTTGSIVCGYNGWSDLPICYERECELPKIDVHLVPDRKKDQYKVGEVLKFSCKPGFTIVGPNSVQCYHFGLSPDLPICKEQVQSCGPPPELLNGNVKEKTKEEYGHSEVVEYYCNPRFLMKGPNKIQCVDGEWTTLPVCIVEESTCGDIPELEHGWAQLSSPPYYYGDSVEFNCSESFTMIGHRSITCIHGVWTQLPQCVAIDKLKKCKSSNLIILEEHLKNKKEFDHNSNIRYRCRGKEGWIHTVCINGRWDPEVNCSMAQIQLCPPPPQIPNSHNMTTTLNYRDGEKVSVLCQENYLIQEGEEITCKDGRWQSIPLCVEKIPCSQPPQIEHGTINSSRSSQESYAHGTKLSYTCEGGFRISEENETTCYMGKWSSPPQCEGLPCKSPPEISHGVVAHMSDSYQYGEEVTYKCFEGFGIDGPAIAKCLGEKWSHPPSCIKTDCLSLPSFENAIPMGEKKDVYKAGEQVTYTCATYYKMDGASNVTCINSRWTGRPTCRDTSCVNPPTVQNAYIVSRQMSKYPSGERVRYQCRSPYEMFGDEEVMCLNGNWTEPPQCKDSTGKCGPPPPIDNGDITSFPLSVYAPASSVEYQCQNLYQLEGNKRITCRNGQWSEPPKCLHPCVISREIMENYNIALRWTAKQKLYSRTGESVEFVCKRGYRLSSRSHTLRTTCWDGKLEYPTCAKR
UniProt P01024: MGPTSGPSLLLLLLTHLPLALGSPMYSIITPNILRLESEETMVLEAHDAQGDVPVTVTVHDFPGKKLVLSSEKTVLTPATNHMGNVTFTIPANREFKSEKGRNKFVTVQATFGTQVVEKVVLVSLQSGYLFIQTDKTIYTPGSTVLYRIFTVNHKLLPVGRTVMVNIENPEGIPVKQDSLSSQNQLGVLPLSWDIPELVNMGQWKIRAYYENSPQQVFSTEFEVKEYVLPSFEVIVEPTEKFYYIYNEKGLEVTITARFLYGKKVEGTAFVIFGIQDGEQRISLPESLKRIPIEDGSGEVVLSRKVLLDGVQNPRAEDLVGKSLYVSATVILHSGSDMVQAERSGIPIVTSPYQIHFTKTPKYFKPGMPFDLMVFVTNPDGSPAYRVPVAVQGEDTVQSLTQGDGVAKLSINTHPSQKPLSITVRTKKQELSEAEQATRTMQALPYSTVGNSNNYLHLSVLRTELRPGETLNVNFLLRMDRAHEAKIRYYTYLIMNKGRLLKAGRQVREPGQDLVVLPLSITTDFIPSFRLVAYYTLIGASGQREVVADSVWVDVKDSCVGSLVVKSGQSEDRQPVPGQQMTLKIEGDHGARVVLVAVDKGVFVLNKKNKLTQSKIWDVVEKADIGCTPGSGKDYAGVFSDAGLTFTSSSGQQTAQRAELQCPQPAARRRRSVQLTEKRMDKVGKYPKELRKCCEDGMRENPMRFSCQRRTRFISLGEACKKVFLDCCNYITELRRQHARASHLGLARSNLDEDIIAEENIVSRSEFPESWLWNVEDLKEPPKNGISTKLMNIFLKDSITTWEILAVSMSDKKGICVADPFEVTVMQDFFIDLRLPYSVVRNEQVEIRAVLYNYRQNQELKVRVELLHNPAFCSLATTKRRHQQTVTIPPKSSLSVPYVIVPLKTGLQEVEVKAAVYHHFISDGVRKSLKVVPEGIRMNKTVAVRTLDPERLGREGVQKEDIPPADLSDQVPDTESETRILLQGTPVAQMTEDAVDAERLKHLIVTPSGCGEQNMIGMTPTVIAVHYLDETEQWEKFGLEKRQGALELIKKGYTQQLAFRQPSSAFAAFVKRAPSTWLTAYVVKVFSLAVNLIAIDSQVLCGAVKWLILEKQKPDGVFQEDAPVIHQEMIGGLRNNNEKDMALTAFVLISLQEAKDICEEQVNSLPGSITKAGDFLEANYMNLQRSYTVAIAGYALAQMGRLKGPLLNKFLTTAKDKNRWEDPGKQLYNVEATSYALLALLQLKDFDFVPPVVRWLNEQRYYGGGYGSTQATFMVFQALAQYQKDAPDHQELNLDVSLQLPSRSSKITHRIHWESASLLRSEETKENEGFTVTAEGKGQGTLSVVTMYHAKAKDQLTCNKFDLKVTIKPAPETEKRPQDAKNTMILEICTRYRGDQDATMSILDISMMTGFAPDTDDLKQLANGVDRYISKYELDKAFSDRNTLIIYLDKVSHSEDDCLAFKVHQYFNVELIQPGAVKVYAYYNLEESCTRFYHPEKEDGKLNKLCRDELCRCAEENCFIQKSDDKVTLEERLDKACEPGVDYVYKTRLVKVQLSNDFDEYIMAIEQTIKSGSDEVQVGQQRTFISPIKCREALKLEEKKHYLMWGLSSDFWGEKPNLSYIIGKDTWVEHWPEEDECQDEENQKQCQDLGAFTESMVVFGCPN

Biological target: Factor H (Sigma) (UniProt P08603)
Test: ELISA, Factor H coated at 50 to 0.4 pmol/well, C3b at 10 µg/well, detected with polyclonal anti-C3

With “human C3b (from UniProt P01024 749-1663; P01024 23-667)” the binding was “binds”.
